Source: patent US20170152226A1, “FUNCTIONALISED AND SUBSTITUTED INDOLES AS ANTI-CANCER AGENTS” (Novogen Ltd., priority 2014, published 2017)
For at least one compound, name, drawing or mass did not settle the structure.

Key:
[1] = test system: Tpm3.1-containing actin filaments in SK-N-SH neuroblastoma cells; assay: Microfilament disruption assay, γ9d staining; format: cell-based; conditions: 0-40 μM, 24 hours post treatment
Description: (§1) FIG. 2: Imaging and quantitation of actin filaments in SK-N-SH neuroblastoma cells treated with compound (A) 3504, (B) 3507 and (C) 3516. Cells were stained with γ9d (sheep polycolonal, 1:100) followed by 488-conjugated secondary (1:1000) and DAPI to visualize the Tpm3.1 containing filament bundles and the nucleus, respectively. Shown in the top panel is a representative grey scale immunofluorescent image from control (vehicle alone), 5 μM and 10 μM treated cells. […] The coloured lines indicate the detected actin filaments. Also shown is the quantitation of cell number, filament number/cell and filament number/cell area (μM^2). […]
(§2) The ability of compounds 3504, 3507 and 3516 to disrupt the total actin cytoskeleton (FIG. 1) and to specifically target Tpm3.1-containing actin filaments (FIG. 2) was assessed in vitro using the microfilament disruption assay.
(§3) Briefly, SK-N-SH neuroblastoma cells were seeded at 1800 cells/well in a 384 Perkin Elmer High Content Imaging “View” plate and left to plate down 24 hours prior to treatment. […] Images were then exported and changes in the organization and numbers of actin filaments within the cell were quantitated using a linear feature detection algorithm developed by the CSIRO (Vindin et al., 2014). […] It is these “ridge lines” that correspond to actin filament bundles and allow us to quantitate the number of filaments per cell.

[2] = test system: total actin cytoskeleton in SK-N-SH neuroblastoma cells; assay: Microfilament disruption assay, phalloidin staining; format: cell-based; conditions: 0-40 μM, 24 hours post treatment
Description: as §1, with “1:” for “2:”, “488-Atto-Phallodin” for “γ9d (sheep polycolonal, 1:100) followed by 488-conjugated secondary (1:1000)”, “actin” for “Tpm3.1 containing”
as §2, §3

[3] = molecular target: Tpm3.1 (Homo sapiens, UniProt P06753); assay: Pyrene-based actin filament depolymerisation assay; format: biochemical; conditions: Tpm3.1 pre-incubated with 50 μM compound
[4] = test system: CHLA20 tumours; assay: CHLA20 neuroblastoma xenograft model; format: in vivo; conditions: 150 mg/kg IP daily, after 18 days of treatment
Description: FIG. 4: Compound 3507/30% w/v Dexolve-7 was administered IP daily at 150 mg/kg for 18 days in a flank xenograft model of neuroblastoma (CHLA-20). Tumour volume was measured every 2-3 days.
The in vivo efficacy of compound 3507 was evaluated in the CHLA20 neuroblastoma xenograft model. CHLA20 tumours were established in athymic nude mice by injecting 1.0×10^7 tumour cells subcutaneously in the right flank. Dosing of animals commenced when tumour volume reached ˜200-400 mm^3. Animals (˜n=5+) were randomly divided into treatment and control groups. Compound 3507 was dosed daily by intraperotineal (IP) injection at 150 mg/kg in 30% w/v Captisol (a cyclodextrin-containing formulation).

Compound: Cc1c(C)n(CCCN2CCN(C)CC2)c2ccc(Oc3cccc(C(=O)N4CCN(CCc5ccc(F)cc5)CC4)c3)cc12 [Compound 3507, (3-((2,3-dimethyl-1-(3-(4-methylpiperazin-1-yl)propyl)-1H-indol-5-yl)oxy)phenyl)(4-(4-fluorophenethyl)piperazin-1-yl)methanone]
- disruption of Tpm3.1-containing actin filaments [1]: in a dose-dependent manner
- disruption of the total actin cytoskeleton [2]: in a dose-dependent manner
- rate of depolymerisation of Tpm3.1/F-actin compared with F-actin alone [3]: not significantly different to F-actin
- tumour growth compared to vehicle control [4]: significantly slowed tumour growth
